From paper PMC7699536
These are yes or no findings as the source states them, for the method shown. Binding seen in cells or lysates may run through a third protein. A yes stands for co-enrichment or nearness to the bait. Other partners may have been found. Where a sequence is shown, tags or fusion partners need not be part of it.

Chains of the proteins cited; added tags and fusions are not shown.
UniProt P68371: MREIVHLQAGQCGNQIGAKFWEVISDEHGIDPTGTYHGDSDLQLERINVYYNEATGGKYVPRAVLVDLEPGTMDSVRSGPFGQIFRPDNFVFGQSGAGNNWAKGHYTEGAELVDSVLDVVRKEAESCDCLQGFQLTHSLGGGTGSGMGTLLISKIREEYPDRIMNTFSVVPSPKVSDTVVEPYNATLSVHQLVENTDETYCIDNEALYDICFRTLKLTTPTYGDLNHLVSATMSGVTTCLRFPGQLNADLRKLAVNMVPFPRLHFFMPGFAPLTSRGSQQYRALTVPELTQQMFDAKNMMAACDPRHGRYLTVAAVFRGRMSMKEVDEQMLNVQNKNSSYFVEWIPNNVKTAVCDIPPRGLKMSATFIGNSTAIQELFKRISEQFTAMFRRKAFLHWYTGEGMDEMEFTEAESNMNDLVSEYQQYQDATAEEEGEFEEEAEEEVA
UniProt P35609: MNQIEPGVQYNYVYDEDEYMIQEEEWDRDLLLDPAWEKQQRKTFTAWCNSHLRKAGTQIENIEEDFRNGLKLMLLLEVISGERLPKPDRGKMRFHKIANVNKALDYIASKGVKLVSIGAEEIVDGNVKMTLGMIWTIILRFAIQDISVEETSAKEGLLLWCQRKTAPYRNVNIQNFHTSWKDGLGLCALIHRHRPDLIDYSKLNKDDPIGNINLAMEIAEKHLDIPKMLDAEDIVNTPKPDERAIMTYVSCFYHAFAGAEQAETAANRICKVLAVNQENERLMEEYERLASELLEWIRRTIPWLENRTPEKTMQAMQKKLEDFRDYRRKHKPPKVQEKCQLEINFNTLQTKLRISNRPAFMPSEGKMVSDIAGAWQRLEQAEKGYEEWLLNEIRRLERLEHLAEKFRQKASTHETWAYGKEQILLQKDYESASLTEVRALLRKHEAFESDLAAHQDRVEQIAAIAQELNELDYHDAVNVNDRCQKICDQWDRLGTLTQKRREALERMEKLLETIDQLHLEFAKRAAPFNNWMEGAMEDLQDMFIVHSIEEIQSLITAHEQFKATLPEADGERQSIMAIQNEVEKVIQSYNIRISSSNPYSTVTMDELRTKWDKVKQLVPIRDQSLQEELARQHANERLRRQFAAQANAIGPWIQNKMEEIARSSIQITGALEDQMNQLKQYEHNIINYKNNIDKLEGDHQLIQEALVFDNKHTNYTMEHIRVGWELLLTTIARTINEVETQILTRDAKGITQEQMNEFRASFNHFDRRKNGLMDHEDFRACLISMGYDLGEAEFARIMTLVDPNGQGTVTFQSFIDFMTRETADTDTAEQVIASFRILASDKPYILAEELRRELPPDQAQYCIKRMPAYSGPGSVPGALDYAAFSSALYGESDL
UniProt Q9Y281: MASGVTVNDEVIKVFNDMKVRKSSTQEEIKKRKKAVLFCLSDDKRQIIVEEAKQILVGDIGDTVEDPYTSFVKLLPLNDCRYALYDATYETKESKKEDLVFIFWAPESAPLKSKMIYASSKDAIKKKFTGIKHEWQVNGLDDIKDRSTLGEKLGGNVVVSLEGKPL
UniProt O43707: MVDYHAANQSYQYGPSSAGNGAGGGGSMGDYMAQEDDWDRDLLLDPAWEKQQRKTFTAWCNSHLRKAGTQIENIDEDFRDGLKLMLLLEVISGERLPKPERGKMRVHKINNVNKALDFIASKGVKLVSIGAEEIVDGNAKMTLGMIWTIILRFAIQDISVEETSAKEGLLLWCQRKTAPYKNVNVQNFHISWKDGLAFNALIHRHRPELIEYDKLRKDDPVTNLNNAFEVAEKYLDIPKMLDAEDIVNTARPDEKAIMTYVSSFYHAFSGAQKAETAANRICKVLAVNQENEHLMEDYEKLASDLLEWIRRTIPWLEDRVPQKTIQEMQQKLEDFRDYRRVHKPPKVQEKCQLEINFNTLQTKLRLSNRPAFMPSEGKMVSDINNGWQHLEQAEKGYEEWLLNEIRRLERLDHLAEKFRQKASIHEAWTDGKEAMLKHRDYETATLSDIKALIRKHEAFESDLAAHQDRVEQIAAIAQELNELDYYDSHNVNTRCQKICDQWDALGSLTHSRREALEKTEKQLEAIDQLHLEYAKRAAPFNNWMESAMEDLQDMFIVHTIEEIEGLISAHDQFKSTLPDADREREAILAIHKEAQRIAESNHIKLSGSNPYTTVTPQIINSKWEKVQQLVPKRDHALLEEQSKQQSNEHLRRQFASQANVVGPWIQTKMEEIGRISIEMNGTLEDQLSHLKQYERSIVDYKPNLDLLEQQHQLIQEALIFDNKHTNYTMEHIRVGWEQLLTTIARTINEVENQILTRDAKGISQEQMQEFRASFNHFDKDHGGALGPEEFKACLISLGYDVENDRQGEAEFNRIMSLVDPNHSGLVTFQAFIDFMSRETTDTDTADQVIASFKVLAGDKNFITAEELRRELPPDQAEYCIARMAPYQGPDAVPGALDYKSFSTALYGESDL
UniProt Q9BVA1: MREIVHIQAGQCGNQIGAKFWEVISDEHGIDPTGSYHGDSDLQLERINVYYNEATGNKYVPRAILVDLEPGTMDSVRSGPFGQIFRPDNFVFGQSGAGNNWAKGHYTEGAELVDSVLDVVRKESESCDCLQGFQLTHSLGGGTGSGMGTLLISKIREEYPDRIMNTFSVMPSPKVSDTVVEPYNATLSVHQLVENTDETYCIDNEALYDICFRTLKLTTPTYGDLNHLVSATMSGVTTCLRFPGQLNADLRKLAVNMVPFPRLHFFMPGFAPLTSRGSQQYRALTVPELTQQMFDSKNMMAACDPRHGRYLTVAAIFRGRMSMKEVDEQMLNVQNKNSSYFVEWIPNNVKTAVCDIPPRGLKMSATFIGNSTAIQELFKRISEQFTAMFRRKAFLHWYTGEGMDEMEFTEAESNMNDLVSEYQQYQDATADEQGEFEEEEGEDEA
UniProt Q7Z406: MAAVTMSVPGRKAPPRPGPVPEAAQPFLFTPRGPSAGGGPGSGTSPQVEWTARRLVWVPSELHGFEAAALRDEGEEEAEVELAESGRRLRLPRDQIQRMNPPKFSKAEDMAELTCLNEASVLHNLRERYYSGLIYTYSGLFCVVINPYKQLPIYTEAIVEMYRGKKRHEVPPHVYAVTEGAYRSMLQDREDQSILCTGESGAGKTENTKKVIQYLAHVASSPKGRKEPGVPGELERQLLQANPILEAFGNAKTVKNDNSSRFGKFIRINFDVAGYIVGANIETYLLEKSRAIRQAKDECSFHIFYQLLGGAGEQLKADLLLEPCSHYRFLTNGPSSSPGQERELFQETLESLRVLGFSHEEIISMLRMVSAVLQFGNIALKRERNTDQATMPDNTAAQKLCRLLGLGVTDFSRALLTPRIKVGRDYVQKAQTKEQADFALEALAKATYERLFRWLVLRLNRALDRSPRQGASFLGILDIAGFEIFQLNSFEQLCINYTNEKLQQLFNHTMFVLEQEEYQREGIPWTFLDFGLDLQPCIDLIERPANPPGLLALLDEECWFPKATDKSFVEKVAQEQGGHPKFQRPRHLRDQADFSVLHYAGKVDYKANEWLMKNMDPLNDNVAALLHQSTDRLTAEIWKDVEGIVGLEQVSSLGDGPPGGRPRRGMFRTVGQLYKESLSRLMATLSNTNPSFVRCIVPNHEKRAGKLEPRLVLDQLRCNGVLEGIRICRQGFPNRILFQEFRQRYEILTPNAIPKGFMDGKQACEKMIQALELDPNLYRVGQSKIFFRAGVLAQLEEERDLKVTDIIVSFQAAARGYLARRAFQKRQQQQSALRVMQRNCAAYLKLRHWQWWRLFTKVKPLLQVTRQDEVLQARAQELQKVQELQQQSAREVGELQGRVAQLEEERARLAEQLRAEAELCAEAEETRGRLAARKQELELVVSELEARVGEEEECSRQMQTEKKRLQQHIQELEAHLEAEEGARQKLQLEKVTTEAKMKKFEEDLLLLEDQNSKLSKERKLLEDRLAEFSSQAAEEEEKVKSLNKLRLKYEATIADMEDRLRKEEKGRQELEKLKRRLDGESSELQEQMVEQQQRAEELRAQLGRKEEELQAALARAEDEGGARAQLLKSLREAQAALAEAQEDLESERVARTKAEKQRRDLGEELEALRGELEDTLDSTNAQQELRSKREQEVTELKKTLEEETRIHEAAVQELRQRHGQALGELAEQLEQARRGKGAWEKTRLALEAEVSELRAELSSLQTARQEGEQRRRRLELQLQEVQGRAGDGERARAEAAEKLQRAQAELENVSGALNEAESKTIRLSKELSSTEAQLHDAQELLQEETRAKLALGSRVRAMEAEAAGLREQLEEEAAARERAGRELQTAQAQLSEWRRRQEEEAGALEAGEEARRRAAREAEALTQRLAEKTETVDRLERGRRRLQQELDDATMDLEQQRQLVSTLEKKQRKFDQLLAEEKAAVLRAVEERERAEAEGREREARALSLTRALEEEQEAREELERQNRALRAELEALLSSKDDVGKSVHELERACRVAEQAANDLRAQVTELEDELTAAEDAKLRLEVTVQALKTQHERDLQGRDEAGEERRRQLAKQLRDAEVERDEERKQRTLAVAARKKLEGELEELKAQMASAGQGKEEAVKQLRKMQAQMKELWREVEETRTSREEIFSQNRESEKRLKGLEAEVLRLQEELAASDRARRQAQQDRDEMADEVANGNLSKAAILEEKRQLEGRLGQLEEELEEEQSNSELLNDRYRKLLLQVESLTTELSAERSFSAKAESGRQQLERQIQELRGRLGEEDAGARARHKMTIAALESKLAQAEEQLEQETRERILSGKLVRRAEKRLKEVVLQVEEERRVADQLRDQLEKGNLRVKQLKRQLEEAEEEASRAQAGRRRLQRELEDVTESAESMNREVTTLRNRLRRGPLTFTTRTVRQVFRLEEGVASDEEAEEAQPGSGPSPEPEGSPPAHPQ
UniProt P16949: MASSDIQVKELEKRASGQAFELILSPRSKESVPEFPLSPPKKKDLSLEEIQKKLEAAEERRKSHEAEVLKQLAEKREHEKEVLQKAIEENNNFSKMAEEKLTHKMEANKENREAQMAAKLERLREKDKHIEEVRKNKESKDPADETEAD
UniProt P33176: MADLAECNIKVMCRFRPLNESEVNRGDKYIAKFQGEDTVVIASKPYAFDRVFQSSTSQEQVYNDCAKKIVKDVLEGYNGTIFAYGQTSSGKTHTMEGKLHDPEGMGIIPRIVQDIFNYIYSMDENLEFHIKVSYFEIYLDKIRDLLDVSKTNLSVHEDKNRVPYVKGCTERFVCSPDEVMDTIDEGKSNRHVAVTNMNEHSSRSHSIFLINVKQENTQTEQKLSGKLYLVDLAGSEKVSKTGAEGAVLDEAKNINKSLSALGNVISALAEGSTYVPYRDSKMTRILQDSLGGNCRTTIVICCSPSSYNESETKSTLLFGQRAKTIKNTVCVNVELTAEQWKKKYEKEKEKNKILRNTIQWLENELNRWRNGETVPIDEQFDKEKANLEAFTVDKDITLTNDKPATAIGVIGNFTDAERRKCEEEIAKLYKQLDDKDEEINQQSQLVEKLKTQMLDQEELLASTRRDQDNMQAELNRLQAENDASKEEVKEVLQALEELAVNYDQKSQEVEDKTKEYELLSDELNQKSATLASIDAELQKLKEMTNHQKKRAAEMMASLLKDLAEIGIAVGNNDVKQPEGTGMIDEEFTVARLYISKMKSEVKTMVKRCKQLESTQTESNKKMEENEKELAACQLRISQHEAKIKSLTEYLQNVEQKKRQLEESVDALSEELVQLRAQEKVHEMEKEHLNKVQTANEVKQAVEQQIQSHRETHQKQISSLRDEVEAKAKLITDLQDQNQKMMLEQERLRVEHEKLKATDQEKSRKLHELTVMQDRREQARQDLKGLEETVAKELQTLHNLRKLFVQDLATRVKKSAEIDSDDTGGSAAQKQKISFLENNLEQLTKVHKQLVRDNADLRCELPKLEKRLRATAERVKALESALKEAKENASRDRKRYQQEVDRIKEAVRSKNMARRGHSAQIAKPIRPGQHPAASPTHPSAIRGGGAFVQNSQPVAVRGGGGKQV
UniProt Q9Y6G9: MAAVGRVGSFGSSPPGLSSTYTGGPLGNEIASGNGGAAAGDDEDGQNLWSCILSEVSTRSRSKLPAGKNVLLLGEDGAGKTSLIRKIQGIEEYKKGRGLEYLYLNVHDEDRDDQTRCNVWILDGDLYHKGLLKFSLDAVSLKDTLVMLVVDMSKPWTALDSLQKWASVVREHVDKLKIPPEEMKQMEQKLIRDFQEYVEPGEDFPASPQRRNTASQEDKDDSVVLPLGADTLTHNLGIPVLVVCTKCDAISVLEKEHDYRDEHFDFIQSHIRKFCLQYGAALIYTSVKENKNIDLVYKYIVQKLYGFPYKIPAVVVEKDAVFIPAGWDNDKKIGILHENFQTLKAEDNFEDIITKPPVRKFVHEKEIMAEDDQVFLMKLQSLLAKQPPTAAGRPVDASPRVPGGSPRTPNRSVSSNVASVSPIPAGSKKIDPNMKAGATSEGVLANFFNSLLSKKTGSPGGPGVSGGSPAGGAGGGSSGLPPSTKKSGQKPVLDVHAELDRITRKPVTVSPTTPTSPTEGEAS

T1: FLAG-SEPT14 (wild type), expressed in NT2D1 cells (human) (UniProt Q6ZU15)
T1 sequence: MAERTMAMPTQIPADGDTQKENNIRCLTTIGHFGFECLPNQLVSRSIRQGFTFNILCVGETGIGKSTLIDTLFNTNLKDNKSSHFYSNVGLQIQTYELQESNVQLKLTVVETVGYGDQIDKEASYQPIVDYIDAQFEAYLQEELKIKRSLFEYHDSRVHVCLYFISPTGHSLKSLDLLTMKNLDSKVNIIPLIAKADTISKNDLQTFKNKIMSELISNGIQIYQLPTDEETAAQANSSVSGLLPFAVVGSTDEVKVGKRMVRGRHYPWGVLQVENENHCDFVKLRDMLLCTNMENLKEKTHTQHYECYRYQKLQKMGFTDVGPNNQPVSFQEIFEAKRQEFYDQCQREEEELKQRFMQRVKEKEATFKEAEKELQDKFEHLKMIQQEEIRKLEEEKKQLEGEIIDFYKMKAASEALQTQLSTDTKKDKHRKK


Biological target: T1, FLAG-SEPT14 (wild type), expressed in NT2D1 cells (human)
Assay: affinity purification with mass spectrometry; lysate of NT2D1 cells transfected with pFLAG-SEPT14, precipitated with FLAG antibody (control IgG beside it) on protein A/G beads at 4 °C overnight, washed twice with PBS; nano-LC-MS/MS; triplicate

| Molecule | binding |
| --- | --- |
| Laminin subunit alpha 2 (from UniProt P24043 23-3122) | binds |
| Tubulin, beta 4B (from UniProt P68371 1-445) | binds |
| Actinin, alpha 2 (from UniProt P35609 1-894) | binds |
| Cofilin 2 (from UniProt Q9Y281 1-166) | binds |
| Myosin light chain 6B (from UniProt P14649 1-208) | binds |
| ACTN4 (actinin, alpha 4), endogenous in NT2D1 cells (from UniProt O43707 1-911) | binds |
| Tubulin beta 2B (from UniProt Q9BVA1 1-445) | binds |
| Actinin, alpha 3 (from UniProt Q08043 1-901) | binds |
| Tubulin beta 2A (from UniProt Q13885 1-445) | binds |
| Septin 9 (protein, UniProt Q9UHD8 1-586) MKKSYSGGTRTSSGRLRRLGDSSGPALKRSFEVEEVETPNSTPPRRVQTPLLRATVASSTQKFQDLGVKNSEPSARHVDSLSQRSPKASLRRVELSGPKAAEPVSRRTELSIDISSKQVENAGAIGPSRFGLKRAEVLGHKTPEPAPRRTEITIVKPQESAHRRMEPPASKVPEVPTAPATDAAPKRVEIQMPKPAEAPTAPSPAQTLENSEPAPVSQLQSRLEPKPQPPVAEATPRSQEATEAAPSCVGDMADTPRDAGLKQAPASRNEKAPVDFGYVGIDSILEQMRRKAMKQGFEFNIMVVGQSGLGKSTLINTLFKSKISRKSVQPTSEERIPKTIEIKSITHDIEEKGVRMKLTVIDTPGFGDHINNENCWQPIMKFINDQYEKYLQEEVNINRKKRIPDTRVHCCLYFIPATGHSLRPLDIEFMKRLSKVVNIVPVIAKADTLTLEERVHFKQRITADLLSNGIDVYPQKEFDEDSEDRLVNEKFREMIPFAVVGSDHEYQVNGKRILGRKTKWGTIEVENTTHCEFAYLRDLLIRTHMQNIKDITSSIHFEAYRVKRLNEGSSAMANGMEEKEPEAPEM | binds |
| Outer dense fiber of sperm tails 2 (protein, UniProt Q5BJF6 1-829) MSASSSGGSPRFPSCGKNGVTSLTQKKVLRAPCGAPSVTVTKSHKRGMKGDTVNVRRSVRVKTKVPWMPPGKSSARPVGCKWENPPHCLEITPPSSEKLVSVMRLSDLSTEDDDSGHCKMNRYDKKIDSLMNAVGCLKSEVKMQKGERQMAKRFLEERKEELEEVAHELAETEHENTVLRHNIERMKEEKDFTILQKKHLQQEKECLMSKLVEAEMDGAAAAKQVMALKDTIGKLKTEKQMTCTDINTLTRQKELLLQKLSTFEETNRTLRDLLREQHCKEDSERLMEQQGALLKRLAEADSEKARLLLLLQDKDKEVEELLQEIQCEKAQAKTASELSKSMESMRGHLQAQLRSKEAENSRLCMQIKNLERSGNQHKAEVEAIMEQLKELKQKGDRDKESLKKAIRAQKERAEKSEEYAEQLHVQLADKDLYVAEALSTLESWRSRYNQVVKEKGDLELEIIVLNDRVTDLVNQQQTLEEKMREDRDSLVERLHRQTAEYSAFKLENERLKASFAPMEDKLNQAHLEVQQLKASVKNYEGMIDNYKSQVMKTRLEADEVAAQLERCDKENKILKDEMNKEIEAARRQFQSQLADLQQLPDILKITEAKLAECQDQLQGYERKNIDLTAIISDLRSRIEHQGDKLEMAREKHQASQKENKQLSLKVDELERKLEATSAQNIEFLQVIAKREEAIHQSQLRLEEKTRECGTLARQLESAIEDARRQVEQTKEHALSKERAAQNKILDLETQLSRTKTELSQLRRSRDDADRRYQSRLQDLKDRLEQSESTNRSMQNYVQFLKSSYANVFGDGPYSTFLTSSPIRSRSPPA | binds |
| Zyxin (protein, UniProt Q15942 1-572) MAAPRPSPAISVSVSAPAFYAPQKKFGPVVAPKPKVNPFRPGDSEPPPAPGAQRAQMGRVGEIPPPPPEDFPLPPPPLAGDGDDAEGALGGAFPPPPPPIEESFPPAPLEEEIFPSPPPPPEEEGGPEAPIPPPPQPREKVSSIDLEIDSLSSLLDDMTKNDPFKARVSSGYVPPPVATPFSSKSSTKPAAGGTAPLPPWKSPSSSQPLPQVPAPAQSQTQFHVQPQPQPKPQVQLHVQSQTQPVSLANTQPRGPPASSPAPAPKFSPVTPKFTPVASKFSPGAPGGSGSQPNQKLGHPEALSAGTGSPQPPSFTYAQQREKPRVQEKQHPVPPPAQNQNQVRSPGAPGPLTLKEVEELEQLTQQLMQDMEHPQRQNVAVNELCGRCHQPLARAQPAVRALGQLFHIACFTCHQCAQQLQGQQFYSLEGAPYCEGCYTDTLEKCNTCGEPITDRMLRATGKAYHPHCFTCVVCARPLEGTSFIVDQANRPHCVPDYHKQYAPRCSVCSEPIMPEPGRDETVRVVALDKNFHMKCYKCEDCGKPLSIEADDNGCFPLDGHVLCRKCHTARAQT | binds |
| Septin 7 (protein, UniProt Q16181 1-437) MSVSARSAAAEERSVNSSTMVAQQKNLEGYVGFANLPNQVYRKSVKRGFEFTLMVVGESGLGKSTLINSLFLTDLYSPEYPGPSHRIKKTVQVEQSKVLIKEGGVQLLLTIVDTPGFGDAVDNSNCWQPVIDYIDSKFEDYLNAESRVNRRQMPDNRVQCCLYFIAPSGHGLKPLDIEFMKRLHEKVNIIPLIAKADTLTPEECQQFKKQIMKEIQEHKIKIYEFPETDDEEENKLVKKIKDRLPLAVVGSNTIIEVNGKRVRGRQYPWGVAEVENGEHCDFTILRNMLIRTHMQDLKDVTNNVHYENYRSRKLAAVTYNGVDNNKNKGQLTKSPLAQMEEERREHVAKMKKMEMEMEQVFEMKVKEKVQKLKDSEAELQRRHEQMKKNLEAQHKELEEKRRQFEDEKANWEAQQRILEQQNSSRTLEKNKKKGKIF | binds |

Second part, the molecule after the results:

| binding | Molecule |
| --- | --- |
| binds | Cortactin (from UniProt Q14247 1-550) |
| binds | Myosin, heavy chain 14 (from UniProt Q7Z406 1-1995) |
| binds | Stathmin (from UniProt P16949 1-149) |
| binds | Kinesin family member 5B (from UniProt P33176 1-963) |
| binds | Integrin beta-1 (from UniProt P05556 21-798) |
| binds | Dynein, cytoplasmic 1, light intermediate chain 1 (from UniProt Q9Y6G9 1-523) |
| binds | Fibrous sheath interacting protein 2 (from UniProt Q5CZC0 1-6907) |
| binds | Septin 2 (protein, UniProt Q15019 1-361) MSKQQPTQFINPETPGYVGFANLPNQVHRKSVKKGFEFTLMVVGESGLGKSTLINSLFLTDLYPERVIPGAAEKIERTVQIEASTVEIEERGVKLRLTVVDTPGYGDAINCRDCFKTIISYIDEQFERYLHDESGLNRRHIIDNRVHCCFYFISPFGHGLKPLDVAFMKAIHNKVNIVPVIAKADTLTLKERERLKKRILDEIEEHNIKIYHLPDAESDEDEDFKEQTRLLKASIPFSVVGSNQLIEAKGKKVRGRLYPWGVVEVENPEHNDFLKLRTMLITHMQDLQEVTQDLHYENFRSERLKRGGRKVENEDMNKDQILLEKEAELRRMQEMIARMQAQMQMQMQGGDGDGGALGHHV |
| binds | Septin 11 (protein, UniProt Q9NVA2 1-429) MAVAVGRPSNEELRNLSLSGHVGFDSLPDQLVNKSTSQGFCFNILCVGETGIGKSTLMDTLFNTKFESDPATHNEPGVRLKARSYELQESNVRLKLTIVDTVGFGDQINKDDSYKPIVEYIDAQFEAYLQEELKIKRSLFNYHDTRIHACLYFIAPTGHSLKSLDLVTMKKLDSKVNIIPIIAKADTIAKNELHKFKSKIMSELVSNGVQIYQFPTDEETVAEINATMSVHLPFAVVGSTEEVKIGNKMAKARQYPWGVVQVENENHCDFVKLREMLIRVNMEDLREQTHTRHYELYRRCKLEEMGFKDTDPDSKPFSLQETYEAKRNEFLGELQKKEEEMRQMFVMRVKEKEAELKEAEKELHEKFDLLKRTHQEEKKKVEDKKKELEEEVNNFQKKKAAAQLLQSQAQQSGAQQTKKDKDKKNASFT |
